From US20100129290A1 (I.S.T. corporation, priority 2008, published 2010)

Test: general procedure: Fmoc solid-phase peptide synthesis
Details: zwitterionic form

K(FAM)PHGGGWGQK(dabcyl)
difficulty met (conjugation step): failed to produce acceptable product yields, because of poor selectivity of the reaction

K(DO3A)K(FAM)PHGGGWGQK(dabcyl)K(DO3A)
final HPLC purity (whole synthesis, HPLC and MALDI mass spectrometry): >90%
